Some entries repeat one wording, which the source may state once for all of them. Where a SMILES comes first, the peptide text is derived from it.

The nature of this data set: Comparison of sweeteners (flavoring agent selection) in the chewable tablet. The conditions noted are these: sweetener 10-30 parts in combination with mint essence.
As for `COC(=O)[C@H](Cc1ccccc1)NC(=O)[C@@H](N)CC(=O)O` [aspartame] (H-Asp-Phe-OMe), the taste and flavor entry is “taste and flavor were good”.
Next, `COC(=O)[C@H](Cc1ccccc1)NC(=O)[C@H](CC(=O)O)NCCC(C)(C)C` [neotame]: “taste and flavor were good”; mogroside: “taste and flavor were good”.

The values are drawn from US20190269614A1, “CHEWABLE TABLET CONTAINING VITAMIN C SODIUM AND PREPARATION METHOD THEREOF” (GUANGXI SANPOTEL HEALTH INDUSTRY CO. LTD, priority 2016, published 2019).
